Literature values in patent publication US8007825B2, “Oral compositions containing a salivation inducing agent” (McNeil-PPC, Inc., priority 2005, dated 2011).
Peptide text beside a SMILES is read from it.

Settings: relative to sucrose (standard = 1)

Q: With `CC1=CC(=O)[N-]S(=O)(=O)O1.[K+]` [Acesulfame K] as the molecule, how does the sweetness index read?
A: 200

Q: For `COC(=O)[C@H](Cc1ccccc1)NC(=O)[C@@H](N)CC(=O)O` [Aspartame] (H-Asp-Phe-OMe), which sweetness index is on record?
A: 180

Q: For `O=C(CO)[C@@H](O)[C@H](O)[C@H](O)CO` [Fructose], which sweetness index is on record?
A: 1.2-1.7

Q: Which sweetness index does the source give for `OC[C@@H](O)[C@@H](O)[C@H](O)[C@H](O)CO` [Mannitol] here?
A: 0.7

Q: Which sweetness index does the source give for `O=C1NS(=O)(=O)c2ccccc21` [Saccharin] here?
A: 300

Q: For `OC[C@@H](O)[C@@H](O)[C@H](O)[C@@H](O)CO` [Sorbitol], which sweetness index is on record?
A: 0.54-0.7

Q: Which sweetness index does the source give for `OC[C@H]1O[C@H](O[C@]2(CCl)O[C@H](CCl)[C@@H](O)[C@@H]2O)[C@H](O)[C@@H](O)[C@H]1Cl` [Sucralose] here?
A: 600

Q: For `OC[C@H]1O[C@@](CO)(O[C@H]2O[C@H](CO)[C@@H](O)[C@H](O)[C@H]2O)[C@@H](O)[C@@H]1O` [Sucrose], which sweetness index is on record?
A: 1

Q: For `OC[C@@H](O)[C@H](O)[C@@H](O)CO` [Xylitol], which sweetness index is on record?
A: 1.0
